# From patent publication US12065483
# No constants are given. Whether binding was seen depends on the method and setting. Binding calls can cover weak binding; strength is not graded here.
# B1: F2-02 (VHH)
# VHH: QVQLVESGGGLVQAGGSLRLSCAASGRTFRSFAMGWFRQAPGKEREFVATISWWSNNTYYADSVKGRFTISRDIAKNTVYLQMNSLKPEDTAVYYCAADLGPWLTAGQYDYWGQGTQVTVSS
# B2: F1-04 (VHH)
# VHH: QVQLVESGGGLVQVGGSLRLSCAASERPSSNYAMGWFRQAPGKEQEFVAAIYWSGGGTAYGDSVKGRFTISKDNAKNTVYLQMNDLKPEDTGMYYCTTDHYGSWSYEYGSWGQGTQVTVSS
# B3: F2-20 (VHH)
# VHH: QVQLVESGGGLVQAGGSLRLSCAASGRTFSRYAMGWFRQAPGKEREFVARISWSGDITYYADSVKGRFTISRDNAKNTVYLQMNSLKPEDTAVYYCAADAILRTRPPYESDYWGQGTQVTVSS
# B4: F2-24 (VHH)
# VHH: QVQLVESGGGLVQAGGSLRLSCASSGHTFNSYVMGWFRQAPGKEREFVAAIRPSGVSTYYADSVKGRFTISRDNAKNTVSLEMNSLKPEDTAVYYCAGDRDHSMMAVRRLSSYRQWGRGTQVTVSS
# Target: Influenza Hemagglutinin A (influenza A virus)
# Assay: ELISA of selected clones
row,Binder,binding
1,B1,binds
2,B2,binds
3,B3,binds
4,B4,binds

# Target: Influenza Hemagglutinin B (influenza B virus)
# Assay: ELISA of selected clones
row,Binder,binding
1,B1,binds
2,B2,binds
3,B3,binds
4,B4,binds
